Over roughly 1,600 compounds, “Hit score” has its median near 0.13; the highest 2% begin near 0.46. Some of the results follow. Where a SMILES comes first, the peptide text is derived from it. [ ]: non-standard residue; d: D form. pGlu = O=C1CC[C@@H](C(=O)O)N1; Thz = O=C(O)[C@@H]1CSCN1
tested on: SARS-CoV-2; test: Antiviral activity against SARS-CoV-2 (USA-WA1/2020 strain) measured by imaging in HRCE cells at MOI 0.4 after 96 hrs (reported as hit score from 0-1 for on-disease vs off-disease activity: scores >0.6 considered hits); type: functional, Homo sapiens

Compound | Hit score
CCn1c(=O)c2c(nc(/C=C/c3ccc(OC)c(OC)c3)n2C)n(CC)c1=O [ISTRADEFYLLINE] | 0.1372
C[N+]1(C)[C@@H]2C[C@@H](OC(=O)C(O)(c3cccs3)c3cccs3)C[C@H]1[C@@H]1O[C@@H]12 [TIOTROPIUM] | 0.1855
O=C(/C=C/c1ccc(O)c(O)c1)O[C@H](Cc1ccc(O)c(O)c1)C(=O)O [ROSMARINIC ACID] | 0.1856
COc1ccc(-c2cc(=O)c3c(O)c(OC)c(O)cc3o2)cc1OC [EUPATILIN] | 0.2352
O=C(NCCCN1CCOCC1)c1ccc(Cl)cc1 [EPROBEMIDE] | 0.09412
COc1cc(CNC(=O)CCCC/C=C/C(C)C)ccc1O [CAPSAICIN] | 0.1538
CC(=O)Nc1nnc(S(N)(=O)=O)s1 [ACETAZOLAMIDE] | 0.1016
Cc1cc2cc3c(C)cc(=O)oc3c(C)c2o1 [TRIOXSALEN] | 0.006457
CC(C)Oc1ccc2c(=O)c(-c3ccccc3)coc2c1 [IPRIFLAVONE] | 0.1596
Clc1ccc2nsnc2c1NC1=NCCN1 [TIZANIDINE] | 0.1488
O=S(=O)(O)c1ccc2[nH]c(-c3ccccc3)nc2c1 [ENSULIZOLE] | 0.1842
CCCCOc1cc(C(=O)OCCN(CC)CC)ccc1N [BENOXINATE] | 0.147
N#C/C(=C1/SC[C@@H](c2ccc(Cl)cc2Cl)S1)n1ccnc1 [LULICONAZOLE] | 0.09705
CCCCC(=O)O[C@H]1CC[C@H]2[C@@H]3CCc4cc(O)ccc4[C@H]3CC[C@]12C [ESTRADIOL VALERATE] | -0.001889
CCCCCCOc1ccccc1C(N)=O [EXALAMIDE] | 0.1514
CC(=O)Nc1c(I)c(C(=O)N[C@H]2C(O)O[C@H](CO)[C@@H](O)[C@@H]2O)c(I)c(N(C)C(C)=O)c1I (stereo not given in full) [METRIZAMIDE] | 0.08821
Cc1c(-c2ccc(O)cc2)n(Cc2ccc(OCCN3CCCCCC3)cc2)c2ccc(O)cc12 [BAZEDOXIFENE] | 0.1195
CCc1cc2c(cc1CC)CC(NC[C@H](O)c1ccc(O)c3[nH]c(=O)ccc13)C2 [INDACATEROL] | -0.2891
O=[N+]([O-])O[C@@H]1CO[C@H]2[C@@H]1OC[C@@H]2O [ISOSORBIDE MONONITRATE] | 0.1018
CC(C)OC(=O)OCOP(=O)(CO[C@H](C)Cn1cnc2c(N)ncnc21)OCOC(=O)OC(C)C.O=C(O)/C=C/C(=O)O [TENOFOVIR DISOPROXIL FUMARATE] | 0.2849
Cc1ccc(-c2cc(C(F)(F)F)nn2-c2ccc(S(N)(=O)=O)cc2)cc1 [CELECOXIB] | 0.04185
O=C(O)c1cccc(-c2noc(-c3ccccc3F)n2)c1 | 0.2151
CC(CNC1CCCCC1)OC(=O)c1ccccc1 (stereo not given) [HEXYLCAINE] | 0.1991
CN[C@H]1CC[C@@H](c2ccc(Cl)c(Cl)c2)c2ccccc21 [SERTRALINE] | 0.01994

Structures above containing fluorine (2):
Compound | Hit score
Cc1ccc(-c2cc(C(F)(F)F)nn2-c2ccc(S(N)(=O)=O)cc2)cc1 [CELECOXIB] | 0.04185
O=C(O)c1cccc(-c2noc(-c3ccccc3F)n2)c1 | 0.2151

More results.

Compound | Hit score
CN1CCc2nc(C(=O)N[C@@H]3C[C@@H](C(=O)N(C)C)CC[C@@H]3NC(=O)C(=O)Nc3ccc(Cl)cn3)sc2C1 [EDOXABAN] | 0.1963
CC(C)NCC(O)c1ccc([N+](=O)[O-])cc1 (stereo not given) [NIFENALOL] | 0.2196
CC[C@H]1OC(=O)[C@H](C)[C@@H](O[C@H]2C[C@@](C)(OC)[C@@H](O)[C@H](C)O2)[C@H](C)[C@@H](O[C@@H]2O[C@H](C)C[C@H](N(C)C)[C@H]2O)[C@](C)(O)C[C@@H](C)CN(C)[C@H](C)[C@@H](O)[C@]1(C)O [AZITHROMYCIN] | 0.3754
C[C@@H]1CCC[C@H](C)N1NC(=O)c1ccc(Cl)c(S(N)(=O)=O)c1 [CLOPAMIDE] | 0.2705
CCOC(=O)[C@H]1O[C@@H]1C(=O)N[C@@H](CC(C)C)C(=O)NCCC(C)C [ALOXISTATIN] | 0.7896
CC(C)NCC(O)COc1ccc(CC(N)=O)cc1 (stereo not given) [ATENOLOL] | 0.2303
C[C@]12CC[C@H](O)CC1=CC[C@@H]1[C@@H]2CC[C@]2(C)C(c3cccnc3)=CC[C@@H]12 [ABIRATERONE] | 0.3975
COc1ccccc1OC(=O)c1ccccc1OC(C)=O [GUACETISAL] | 0.1414
O=C(O)CC(S)C(=O)O (stereo not given) | 0.06746
Cn1c(=O)c2c(ncn2CC2OCCO2)n(C)c1=O [DOXOFYLLINE] | 0.06006
COC(=O)Nc1nc2cc(Sc3ccccc3)ccc2[nH]1 [FENBENDAZOLE] | 0.2076
CN(CCCCCCCCCCN(C)C(=O)Oc1cccc([N+](C)(C)C)c1)C(=O)Oc1cccc([N+](C)(C)C)c1 | 0.1597
CC(=O)N(CC(O)CO)c1c(I)c(C(=O)NCC(O)CO)c(I)c(C(=O)NCC(O)CO)c1I (stereo not given) [IOHEXOL] | 0.2283
CN1CCN(CC(=O)N2c3ccccc3C(=O)Nc3cccnc32)CC1 [PIRENZEPINE] | 0.1961
Cn1c(CCCC(=O)O)nc2cc(N(CCCl)CCCl)ccc21 [BENDAMUSTINE] | 0.07328
CC(C)(C)c1cc(C(C)(C)C)c(NC(=O)c2c[nH]c3ccccc3c2=O)cc1O [IVACAFTOR] | 0.04666
Cc1ccc([C@@H]2O[C@H](CO)[C@@H](O)[C@H](O)[C@H]2O)cc1Cc1ccc(-c2ccc(F)cc2)s1 [CANAGLIFLOZIN ANHYDROUS] | 0.2292
Nc1ncnc2c1ncn2[C@@H]1O[C@H](CO)[C@@H](O)[C@@H]1O [VIDARABINE] | -0.02251
C1CNCCN1.C[C@]12CC[C@@H]3c4ccc(OS(=O)(=O)O)cc4CC[C@H]3[C@@H]1CCC2=O [ESTROPIPATE] | 0.1464
COc1cc2ncnc(Nc3ccc(F)c(Cl)c3)c2cc1NC(=O)/C=C/CN1CCCCC1.O [DACOMITINIB] | -0.155
CCOc1nc2cccc(C(=O)O)c2n1Cc1ccc(-c2ccccc2-c2nnn[nH]2)cc1 | 0.1663
CC[C@H](C)[C@H](N)C(=O)O [ISOLEUCINE] | 0.09121
NC(=O)c1cc([N+](=O)[O-])cc([N+](=O)[O-])c1 [NITROMIDE] | 0.1568
O=c1[nH]c2ccccc2n1CCN1CCN(c2cccc(C(F)(F)F)c2)CC1 [FLIBANSERIN] | 0.2785

Compound | Hit score
O=C1CC[C@@H](C(=O)N2CSC[C@H]2C(=O)O)N1 [PIDOTIMOD] ([pGlu]-[Thz]-OH) | 0.2479
NC(=O)[C@@H]1CC[C@@H]2CN1C(=O)N2OS(=O)(=O)[O-].[Na+] [AVIBACTAM SODIUM] | 0.2969
COC(=O)C1=C(C)NC(C)=C(C(=O)OC(C)(C)CN(C)CCC(c2ccccc2)c2ccccc2)C1c1cccc([N+](=O)[O-])c1 (stereo not given) [LERCANIDIPINE] | -0.07328
CN1CCN(C(=O)O[C@H]2c3nccnc3C(=O)N2c2ccc(Cl)cn2)CC1 [ESZOPICLONE] | 0.1911
CCC1(c2ccccc2)C(=O)NCNC1=O [PRIMIDONE] | 0.2656
CCCCc1oc2ccc(NS(C)(=O)=O)cc2c1C(=O)c1ccc(OCCCN(CCCC)CCCC)cc1 [DRONEDARONE] | 0.03796
COc1cc(Nc2c(C#N)cnc3cc(OCCCN4CCN(C)CC4)c(OC)cc23)c(Cl)cc1Cl [BOSUTINIB] | 0.09732
O=C(c1ccc(F)cc1)C1CCN(CCn2c(=O)[nH]c3ccccc3c2=O)CC1 [KETANSERIN] | 0.2986
CCCCCCCC/C=C/CCCCCCCC(=O)OC[C@H]1O[C@@H](n2ccc(N)nc2=O)C(F)(F)[C@@H]1O [GEMCITABINE ELAIDATE] | 0.08488
CC(N)Cc1ccc(O)cc1 (stereo not given) [HYDROXYAMPHETAMINE] | 0.1217
Clc1ccc2c(c1)CCc1cccnc1C2=C1CCNCC1 [DESLORATADINE] | 0.003338
CCS(=O)(=O)N1CC(CC#N)(n2cc(-c3ncnc4[nH]ccc34)cn2)C1 [BARICITINIB] | 0.05063
NCC(CC(=O)O)c1ccc(Cl)cc1 (stereo not given) [BACLOFEN] | 0.3217
CCC(CC)[C@H](NC(C)=O)[C@@H]1[C@H](O)[C@@H](C(=O)O)C[C@H]1NC(=N)N [PERAMIVIR ANHYDROUS] | 0.03535
CCCOc1ccc2[nH]c(NC(=O)OC)nc2c1 [OXIBENDAZOLE] | 0.2495
Cc1cc2nc3c(=O)[nH]c(=O)nc-3n(C[C@H](O)[C@H](O)[C@H](O)CO)c2cc1C [RIBOFLAVIN] | 0.1705
CC1(C)OC[C@@H](COC(=O)CCc2ccc(OC[C@@H](O)CNCCNC(=O)N3CCOCC3)cc2)O1 [LANDIOLOL] | 0.1908
CN1CCC2=C(C1)c1ccccc1Cc1ccccc12 [SETIPTILINE] | 0.04395
Clc1cccc(Cl)c1NC1=NCCN1 [CLONIDINE] | 0.1651
CO[C@H]1/C=C/O[C@@]2(C)Oc3c(C)c(O)c4c(O)c(c5c(nc6cc(C)ccn65)c4c3C2=O)NC(=O)/C(C)=C\C=C\[C@H](C)[C@H](O)[C@@H](C)[C@@H](O)[C@@H](C)[C@H](OC(C)=O)[C@@H]1C [RIFAXIMIN] | 0.2244
Cc1ncc(CO)c(C=O)c1O [PYRIDOXAL] | 0.2466
CCCNC(=O)NS(=O)(=O)c1ccc(Cl)cc1 [CHLORPROPAMIDE] | 0.2087

3 compounds out of the list, ordered by length of the SMILES, rising:
Compound | Hit score
O=C(c1ccc(F)cc1)C1CCN(CCn2c(=O)[nH]c3ccccc3c2=O)CC1 [KETANSERIN] | 0.2986
Cc1cc2nc3c(=O)[nH]c(=O)nc-3n(C[C@H](O)[C@H](O)[C@H](O)CO)c2cc1C [RIBOFLAVIN] | 0.1705
CCCCCCCC/C=C/CCCCCCCC(=O)OC[C@H]1O[C@@H](n2ccc(N)nc2=O)C(F)(F)[C@@H]1O [GEMCITABINE ELAIDATE] | 0.08488

From ChEMBL document CHEMBL4303122, “Identification of potential treatments for COVID-19 through artificial intelligence-enabled phenomic analysis of human cells infected with SARS-CoV-2” (2020)
